Results: PubChem BioAssay AID540276 (National Center for Advancing Translational Sciences (NCATS), 2011)
Hit rate of the full screen: of about 300,000 compounds, about 5,400 (1.8%) were called active. The shares of active, inactive and inconclusive entries below differ from those in the screen. The call rests on the fitted dose curve; tested in HEK293 cells. Potencies of inconclusive entries are doubtful fits and often do not repeat.

assay: qHTS for inhibitors of binding or entry into cells for Marburg Virus; conditions: Marburg virus pseudotyped entry inhibition, cell reporter; activity change, negative = inhibition: at 37.8 µM (top of the series) unless noted
On the % scale 0 is the no-effect control and ±100 the full control effect; potency means the concentration at half of the fitted maximal effect.

Compound | Potency | activity change, negative = inhibition
O=C(NCc1ccco1)C(c1ccccc1)N(C(=O)Cc1cccs1)c1ccccc1F (stereo not drawn) | inconclusive: 2.31 µM [inhibitor, full curve, poor fit] | 
O=C(CCCSc1nc2ccccc2s1)NC1=NCCS1 | inconclusive: 8.2 µM [inhibitor, partial curve] | 
O=C(CSc1nnc(-c2ccco2)o1)N1CCCCC1 | inconclusive: 5.01 µM [activator, full curve] | 
Cc1cccc(C(=O)Nc2ccc(C(=O)/C=C/c3ccncc3)cc2)c1 | inconclusive: 6.31 µM [inhibitor, partial curve, poor fit] | 
O=C(NC1CCCCC1)c1cc2cc(Br)ccc2o1 | inconclusive: 0.316 µM [activator, full curve, poor fit] | 
CCOC(=O)c1ccccc1NC(=O)CSc1nc2ccccc2o1 | inactive | 
COc1ccccc1N(C)S(=O)(=O)c1ccc(Cl)c(C(=O)N2CCC2)c1 | inactive | 
Cc1nc2ccccn2c1C(=O)NN=C1CCCC1 | inactive | 
Nc1c(C(=O)Nc2cccc(F)c2)sc2nc(-c3cccs3)ccc12 |  | inconclusive: 29.3% [activator] [at 46.1 µM]
COc1ccccc1-c1cc(C(=O)Nc2c(C)n(C)n(-c3ccccc3)c2=O)no1 | inactive | 
CCN1CCN(CCCNC(=O)C2c3ccccc3C(=O)N(C)C2c2ccc(OC)cc2)CC1 (stereo not drawn) | inconclusive: 5.62 µM [inhibitor, single point] | 
CC(=O)Nc1ccc(-c2cc(-c3ccc(NC(C)=O)cc3)nc(-c3ccccc3)n2)cc1 | inactive | 
Brc1ccc(CSc2ccc3nnc(-c4cccnc4)n3n2)cc1 | inconclusive: 11.2 µM [inhibitor, partial curve, poor fit] | 
CC(CCc1ccccc1)NC(=O)C(=O)Nc1ccccc1 (stereo not drawn) | inconclusive: 35.5 µM [activator, single point] | 
c1cnc(Nc2nc(-c3ccc4ccccc4c3)cs2)nc1 | inconclusive: 0.231 µM [activator, full curve, poor fit] | 
Cc1ccc2nc(NC(=O)c3ccc(S(=O)(=O)N4CCCc5ccccc54)cc3)sc2c1 | inconclusive: 8.91 µM [inhibitor, partial curve, poor fit] | 
CCOC(=O)c1nn(-c2ccc(C)cc2)c(=O)cc1OCC(=O)Nc1cccc(C)c1 | inconclusive: 17.8 µM [inhibitor, single point] | 
NC(=O)c1cccn(Cc2ccc(C(F)(F)F)cc2)c1=O | inconclusive: 11.2 µM [inhibitor, single point] | 
COCCCn1c(=O)c2sccc2n2c(CCCC(=O)Nc3ccc(F)c(F)c3)nnc12 | inactive | 
O=C(CCc1nnc(CCC2CCCCC2)o1)NCCn1cccn1 | inconclusive: 15.8 µM [activator, partial curve, poor fit] | 
Cc1ccc2nc(-c3ccccc3)cc(C(=O)N(C)CC(=O)Nc3ccccc3Br)c2c1 | active: 11.2 µM | 

Compound | Potency | activity change, negative = inhibition
CCOC(=O)c1ccc(NC(=O)c2ccc(OC(C)C)c(OC)c2)cc1 | inconclusive: 35.5 µM [inhibitor, single point] | 
CC(=O)NC(Cc1c[nH]c2ccccc12)C(=O)N/N=C/c1ccccc1 (stereo not drawn) | inconclusive: 15.8 µM [activator, single point] | 
CCOC(=O)C(NC(=O)c1ccccc1)=C1C=C(C)OC(C)=C1 | inconclusive: 31.6 µM [activator, single point] | 
COc1ccc(/C=C/C(=O)Nc2cc(S(=O)(=O)N3CCOCC3)ccc2C)cc1OC | inactive | 
COc1ccc(-c2cc(C(=O)Nc3ccccc3N3CCOCC3)c3ccccc3n2)cc1OC | inconclusive: 2.82 µM [inhibitor, full curve, poor fit] | 
NCCCC[C@@H]1NC(=O)[C@H](CCC(=O)O)NC(=O)c2cc([N+](=O)[O-])cc(I)c2NCC[C@@H](C(N)=O)NC1=O | inconclusive: 5.17 µM [activator, full curve, poor fit] | 
NS(=O)(=O)c1ccc(CCNC(=O)C2CCN(S(=O)(=O)c3cnc[nH]3)CC2)cc1 | inactive | 
CCCCCc1ccc(OCCCC[n+]2cccc(C)c2)c(CCCCC)c1 | inconclusive: 15.8 µM [inhibitor, partial curve, poor fit] | 
COc1ccc(NC(=O)CCc2nc3cccnc3n2-c2ccccc2)cc1Cl | inconclusive: 35.5 µM [inhibitor, single point] | 
O=c1c2c3c(sc2n(Cc2ccccc2F)c(=O)n1-c1ccc(Cl)cc1)CCCC3 | inactive | 
CC(NC(=O)CSc1nc2ccccc2n1C)c1ccccc1 (stereo not drawn) | inconclusive: 22.4 µM [inhibitor, single point] | 
Cc1ccccc1CSCCNC(=O)C1CCN(S(=O)(=O)Cc2ccccc2)CC1 | inconclusive: 35.5 µM [inhibitor, single point] | 
Cc1cc(C)cc(NC(=S)NC(=O)Cc2ccccc2)c1 | inconclusive: 35.5 µM [inhibitor, single point] | 
Cc1ccc(NC(=O)C2CCN(S(=O)(=O)c3ccc4c(c3)NC(=O)C(C)S4)CC2)c(C)c1 (stereo not drawn) | inconclusive: 35.5 µM [inhibitor, partial curve, poor fit] | 
O=C(c1cccc(C(F)(F)F)c1)N1CCc2c([nH]c3ccccc23)C1C(F)(F)F (stereo not drawn) | inconclusive: 11.2 µM [inhibitor, partial curve, poor fit] | 
Cc1ccc(O)c(NC(=O)c2cc(-c3ccc(F)cc3)on2)c1 | inconclusive: 12.6 µM [activator, partial curve, poor fit] | 
COc1cc(NC(=O)CN2C(=O)C(c3ccc(Cl)cc3)=NC23CCCCC3)cc(OC)c1 | inconclusive: 35.5 µM [inhibitor, single point] | 
CC(=O)c1ccc(NC(=O)CCCN2C(=O)/C(=C/C(C)=C/c3ccccc3)SC2=S)cc1 | inconclusive: 3.16 µM [activator, partial curve, poor fit] | 
Cc1ccc(C2=CC(c3ccc(Cl)cc3)n3nc(-c4ccc(C)cc4)nc3N2)cc1 (stereo not drawn) | inconclusive: 10 µM [inhibitor, partial curve, poor fit] | 
CC(C)c1ccc(C2c3c(oc4ccc(Cl)cc4c3=O)C(=O)N2CCCN2CCOCC2)cc1 (stereo not drawn) | inconclusive: 35.5 µM [inhibitor, single point] | 

A run of entries of the results above, as a working copy:
Compound | Potency | activity change, negative = inhibition
CC(=O)NC(Cc1c[nH]c2ccccc12)C(=O)N/N=C/c1ccccc1 (stereo not drawn) | inconclusive: 15.8 µM [activator, single point] | 
CCOC(=O)C(NC(=O)c1ccccc1)=C1C=C(C)OC(C)=C1 | inconclusive: 31.6 µM [activator, single point] | 
COc1ccc(/C=C/C(=O)Nc2cc(S(=O)(=O)N3CCOCC3)ccc2C)cc1OC | inactive | 
COc1ccc(-c2cc(C(=O)Nc3ccccc3N3CCOCC3)c3ccccc3n2)cc1OC | inconclusive: 2.82 µM [inhibitor, full curve, poor fit] | 
NCCCC[C@@H]1NC(=O)[C@H](CCC(=O)O)NC(=O)c2cc([N+](=O)[O-])cc(I)c2NCC[C@@H](C(N)=O)NC1=O | inconclusive: 5.17 µM [activator, full curve, poor fit] | 
NS(=O)(=O)c1ccc(CCNC(=O)C2CCN(S(=O)(=O)c3cnc[nH]3)CC2)cc1 | inactive | 
CCCCCc1ccc(OCCCC[n+]2cccc(C)c2)c(CCCCC)c1 | inconclusive: 15.8 µM [inhibitor, partial curve, poor fit] | 
COc1ccc(NC(=O)CCc2nc3cccnc3n2-c2ccccc2)cc1Cl | inconclusive: 35.5 µM [inhibitor, single point] | 
O=c1c2c3c(sc2n(Cc2ccccc2F)c(=O)n1-c1ccc(Cl)cc1)CCCC3 | inactive | 
CC(NC(=O)CSc1nc2ccccc2n1C)c1ccccc1 (stereo not drawn) | inconclusive: 22.4 µM [inhibitor, single point] | 
Cc1ccccc1CSCCNC(=O)C1CCN(S(=O)(=O)Cc2ccccc2)CC1 | inconclusive: 35.5 µM [inhibitor, single point] | 
Cc1cc(C)cc(NC(=S)NC(=O)Cc2ccccc2)c1 | inconclusive: 35.5 µM [inhibitor, single point] | 
Cc1ccc(NC(=O)C2CCN(S(=O)(=O)c3ccc4c(c3)NC(=O)C(C)S4)CC2)c(C)c1 (stereo not drawn) | inconclusive: 35.5 µM [inhibitor, partial curve, poor fit] | 

Remaining list, next part.

Compound | Potency | activity change, negative = inhibition
O=C(COC(=O)Cc1ccccc1[N+](=O)[O-])NCC1CCCCC1 | inconclusive: 5.62 µM [activator, single point] | 
CC(C)(C)c1nc(NCCN2CCOCC2)c2nnn(Cc3ccccc3Cl)c2n1 | inconclusive: 3.66 µM [inhibitor, full curve] | 
COc1ccc(/C=N/NC(=O)CNC(=O)/C=C/c2ccco2)cc1OC | inconclusive: 12.6 µM [activator, single point] | 
O=C1N=C(N2CCOCC2)S/C1=C\c1cccnc1 | inconclusive: 0.891 µM [inhibitor, full curve, poor fit] | 
COC(=O)CCC(=O)Nc1sc2c(c1C#N)CCCC2 | inactive | 
CNC(=O)COc1ccc(C=O)cc1OC | inconclusive: 31.6 µM [activator, single point] | 
Cc1cc(NCCCn2ccnc2)n2nc(-c3ccc(F)cc3)cc2n1 | inactive | 
Cc1oc2ccc(O)c(CN3CCCCC3C)c2c1C(=O)Nc1ccccc1 (stereo not drawn) | inconclusive: 35.5 µM [inhibitor, single point] | 
COc1ccc(NC(=O)c2ccc(CNc3c(NC4CCCCC4)c(=O)c3=O)cc2)cc1OC | inconclusive: 0.398 µM [inhibitor, partial curve, poor fit] | 
CCOC(=O)C1=C(c2ccccc2)NC(SCC(=O)NC2CCCCC2)=C(C#N)C1c1ccco1 (stereo not drawn) | inconclusive: 25.9 µM [inhibitor, single point] | 
CCc1ccc2oc(-c3ccc(OC)cc3)cc(=Nc3cccc(C(=O)O)c3)c2c1 | inconclusive: 2.82 µM [inhibitor, full curve, poor fit] | 
CC(C)c1ccc(-c2cc(C(=O)N3CCOCC3)c3cc(Br)ccc3n2)cc1 | inactive | 
Cc1ccc(-c2csc(NC(=O)C3=COCCO3)n2)cc1 | inconclusive: 0.501 µM [activator, full curve, poor fit] | 
C[N+](C)(C)C/C=C1/COCO1 | inconclusive: 15.8 µM [activator, single point] | 
Cc1cccc(NC(=S)NCC23C=CC(O2)C2C(=O)N(c4ccc(Cl)cc4)C(=O)C23)c1 (stereo not drawn) | inconclusive: 35.5 µM [inhibitor, single point] | 
CCn1c2ccccc2c2cc(/C(C)=N/O)ccc21 | inconclusive: 1.26 µM [inhibitor, single point] | 
Cc1ccc(-n2c(O)c(C=Nc3ccccc3N)c(=O)[nH]c2=O)cc1C | inconclusive: 3.55 µM [activator, single point] | 
CN(C)S(=O)(=O)c1ccc(-c2csc(-c3cccnc3)n2)cc1 | inactive | 
CN1CCN(c2ccc(NC(=O)COc3ccccc3[N+](=O)[O-])cc2)CC1 | inconclusive: 22.4 µM [activator, partial curve, poor fit] | 
CCc1cc2c3c(c1)C1(C(=O)N3C(C)(C)CC2C)C(C#N)=C(N)N2C(=C1C#N)Nc1ccccc12 (stereo not drawn) | inconclusive: 35.5 µM [inhibitor, single point] | 
CN1CCN(c2ccc(S(=O)(=O)N3CCCCC3)cc2NC(=O)COc2ccc(F)cc2)CC1 | inconclusive: 8.91 µM [inhibitor, partial curve, poor fit] | 
